Assay results taken from patent US20020115642A1, “Beta-lactam antibiotics” (priority 2000, published 2002).
The name of at least one read-out is uncertain. At least one structure is not confirmed: it was looked up by name or label, or the drawing left a doubt.

Amino acid sequences for entries named in this document (tags omitted). Residues count along the entry.
UniProt P62593, 24-286 limits assumed: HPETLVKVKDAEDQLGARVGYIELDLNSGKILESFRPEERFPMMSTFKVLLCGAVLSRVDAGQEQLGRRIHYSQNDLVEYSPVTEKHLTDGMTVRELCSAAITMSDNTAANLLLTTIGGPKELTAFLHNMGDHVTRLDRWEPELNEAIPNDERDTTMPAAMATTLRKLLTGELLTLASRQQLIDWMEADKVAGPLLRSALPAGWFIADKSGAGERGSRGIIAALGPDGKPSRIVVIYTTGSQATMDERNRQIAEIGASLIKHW

Biological target: T1, TEM-1 β-lactamase (Escherichia coli, UniProt P62593)
T1 construct: His tag (N); made in house; host or cells: Escherichia coli BL21(DE3)
Format: biochemical

O=C(Cc1cccs1)N[C@@H]1C(=O)N2C(C(=O)O)=C(COc3cc(Cl)ccc3Oc3ccc(Cl)cc3Cl)CS[C@H]12 [Compound 9, 3-(2-(2,4-Dichlorophenoxy)-5-chlorophenoxy)methyl-7-(2-thienylacetamido)-3-cephem-4-carboxylic acid]
kcat/Km (Table 3): 77000 M⁻¹ s⁻¹ | kcat (progress curve analysis at 16 μM Compound (9) and […] TEM-1 β-lactamase, 37° C.): 0.50 s − 1
